# The campaign covered roughly 3,000 compounds. About 45 (2%) showed an effect of 50% or more. This is one part of the list.
# Tested on: MOLM1 and UCSD/AML1 (averaged)
# Experiment: cell viability relative to DMSO control (POC); higher = less growth inhibition
# Conditions: 1 µM; 72 h
# Procedure: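 Primary viability screen in the 3q26 EVI1-high AML cell lines MOLM1 and UCSD/AML1, compounds at 1 uM for 72 h. ATP CellTiter-Glo read-out given as percent viable over DMSO control (POC), averaged over duplicates. This mapping covers the TimTec NDL-3000 natural derivative library, whose compounds are identified by TimTec catalogue codes (ST...).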
row,Compound,cell viability
1,COc1cc(/C=C(\C#N)c2ccc(Cl)cc2)ccc1OC(=O)C1COc2ccccc2O1 (configuration not stated),99.3%
2,COc1ccccc1NC(=O)c1ccc2c(c1)OCO2,94.7%
3,CCN(CC)c1ccc(C2C3CCCCC3(O)CCN2C(=O)/C=C/c2ccc3c(c2)OCO3)cc1 (configuration not stated),109%
4,CCOC(=O)C1=C(N)Oc2c(oc(CO)cc2=O)C1c1c(Cl)cccc1Cl (configuration not stated),106%
5,Cc1ccc(NC(=O)CSc2nc3c(=O)[nH]cnc3n2C)cc1F,91.5%
6,CCOC(=O)c1c(C)n(CCSCC)c2c1cc(O)c1ccccc12,99.6%
7,Cc1cc2c(c(O)c1-c1c(C)cc3c(c1O)/C(=C/Nc1ccc(S(=O)(=O)NC(=N)N)cc1)C(=O)C(O)=C3C(C)C)/C(=C/Nc1ccc(S(=O)(=O)NC(=N)N)cc1)C(=O)C(O)=C2C(C)C,98.5%
8,O=C(COc1ccc(Cl)cc1Cl)OCC1CCCN2CCCCC12 (configuration not stated),104%
9,O=C(Cn1c(=O)cc(C(=O)N2CCCC2)c2ccccc21)Nc1cccc(Br)c1,105%
10,Cc1ccc2[nH]c(=O)cc(CSc3nc4cc(C(F)(F)F)ccc4n3C3CC3)c2c1,89%
11,COc1cccc(NC(=O)CSc2nc3c(=O)[nH]cnc3n2C)c1,106%
12,COc1ccc(CNC(=O)CSc2nc3ccccc3c(=O)[nH]2)cc1,109%
13,Cc1oc(C)c(C(=O)NC(Cc2ccccc2)C(=O)O)c1C(=O)NC(Cc1ccccc1)C(=O)O (configuration not stated),99%
14,COc1cc(C(=O)Nc2ccc(-c3ccc([N+](=O)[O-])cc3)cc2)c(Br)c(OC)c1OC,105%
15,COc1ccc(C(NC(=O)CC(NOC(=O)CC2c3ccccc3-c3ccccc32)C(=O)O)c2ccc(OC)cc2)cc1 (configuration not stated),100%
16,COc1cc(C(=O)CC2OC(=O)c3c2ccc(OC)c3OC)ccc1O (configuration not stated),99.2%
17,N#Cc1nc2ccccc2n1CC(=O)N1CCc2ccccc2C1,94.8%
18,CCOc1cc(C2C(C(=O)OC(C)CC)=C(C)NC3=C2C(=O)CC(c2ccc(OC)cc2)C3)cc(Br)c1O (configuration not stated),87.3%
19,COc1cc(C=O)cc(I)c1O,91.6%
20,COc1cc(OC)cc(C(=O)N2CCCc3cccc(OCCNC(C)=O)c32)c1,97.3%
21,O=C(O)c1ccc(NCCC(=O)c2ccc3c(c2)OCO3)cc1,97.4%
22,Cc1ccc(C(=O)NC(=O)CSc2nccc(=O)[nH]2)cc1,108%
23,COc1ccc(C=O)c(OC)c1OC,96%
24,Cc1ccc(C(=O)COc2cc3c(C)cc(=O)oc3cc2Cl)cc1,98.6%
25,COc1c2c(c([N+](=O)[O-])c(OC)c1OC)C(=O)OC2,95.1%
26,O=C(CNc1n[nH]c(=O)[nH]c1=O)N/N=C/c1ccc(C(F)(F)F)cc1,93.5%
27,Cc1ccc(NC(=O)CSc2nc3c(=O)[nH]cnc3n2CC2CCCO2)c(Cl)c1 (configuration not stated),98.7%

# Grouped by structure: the entries above containing a cyano group (2)
row,Compound,cell viability
1,COc1cc(/C=C(\C#N)c2ccc(Cl)cc2)ccc1OC(=O)C1COc2ccccc2O1 (configuration not stated),99.3%
17,N#Cc1nc2ccccc2n1CC(=O)N1CCc2ccccc2C1,94.8%

# Source: the supplement of paper PMC11150407
